Test results from publication PMC4244159.
The exact form of at least one protein or probe is not confirmed. For some assays here: No signal at the amounts used counts as a negative. For some assays here: The comparison behind a weaker result is the experiment's own reference, which may not be listed here.

Amino acid sequences for entries named in this document (tags omitted). A change or cut given only in a name is not applied to a line headed by its entry.
UniProt Q12778: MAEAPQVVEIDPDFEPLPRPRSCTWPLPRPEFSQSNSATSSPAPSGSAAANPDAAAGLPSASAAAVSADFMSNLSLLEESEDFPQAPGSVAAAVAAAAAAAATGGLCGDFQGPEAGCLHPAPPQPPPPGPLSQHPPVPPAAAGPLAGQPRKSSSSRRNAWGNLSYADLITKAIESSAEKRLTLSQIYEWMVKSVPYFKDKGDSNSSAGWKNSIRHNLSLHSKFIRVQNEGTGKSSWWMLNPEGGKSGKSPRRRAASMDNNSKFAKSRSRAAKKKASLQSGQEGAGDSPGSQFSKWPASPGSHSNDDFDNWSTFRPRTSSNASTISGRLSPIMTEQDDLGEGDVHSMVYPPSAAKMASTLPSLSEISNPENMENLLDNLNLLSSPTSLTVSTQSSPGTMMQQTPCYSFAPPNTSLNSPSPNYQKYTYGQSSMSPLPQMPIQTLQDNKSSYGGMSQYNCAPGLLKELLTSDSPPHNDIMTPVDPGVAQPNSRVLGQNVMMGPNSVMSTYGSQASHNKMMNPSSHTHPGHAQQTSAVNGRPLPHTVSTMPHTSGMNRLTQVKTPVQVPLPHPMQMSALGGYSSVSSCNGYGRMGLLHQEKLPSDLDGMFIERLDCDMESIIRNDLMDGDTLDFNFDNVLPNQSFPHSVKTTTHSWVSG

target: Flag-FOXO1-CA (constitutively active FOXO1) (human) (UniProt Q12778); experiment: EMSA, Flag supershift; settings: 10 mM Hepes pH 7.8, 50 mM KCl, 5 mM MgCl2, 0.1% NP-40, 1 mM DTT, 2 µg poly(dI-dC), 10% glycerol; 1 fmol probe, 4 µL TnT lysate, 4°C 30 min; 5% PAGE, 0.25x TBE; protein translated in vitro; protein details: Flag; label: 32P 5' end

Sequence | binding result
TCCCTGTCCGTCTAAACAATGATTCCCTTTCAGCA (double strand) [Fshb -125/-91] | binds more weakly
CTAGATGGTAAACAACTGTGACTAGTAGAACACGG (double strand) [consensus FBE] | binds

target: Flag-FOXO1-CA (constitutively active FOXO1) (human) (UniProt Q12778); experiment: EMSA; settings: 10 mM Hepes pH 7.8, 50 mM KCl, 5 mM MgCl2, 0.1% NP-40, 1 mM DTT, 2 µg poly(dI-dC), 10% glycerol; 1 fmol probe, 4 µL TnT lysate, 4°C 30 min; 5% PAGE, 0.25x TBE; protein translated in vitro; protein details: Flag; label: 32P 5' end

Sequence | binding result
AAAGAATAGTCTAGACTCTAGAGTCACATTTAATT (double strand) [Fshb -275/-241] | no binding
GGATTCTGAGTTCGCCAAGTTAAAGATCAGAAAGA (double strand) [Fshb -305/-271] | no binding
GCCATATCAGATTCGGTTTGTACAGAAACCATCAT (double strand) [Fshb -215/-181] | no binding
TAATTTACAAGGTGAGGGAGTGGGTGTGCTGCCAT (double strand) [Fshb -245/-211] | no binding
ATCATCACTGATAGCATTTTCTGCTCTGTGGCATT (double strand) [Fshb -185/-151] | no binding
GCATTTAGACTGCTTTGGCGAGGCTTGATCTCCCT (double strand) [Fshb -155/-121] | no binding
